This experiment addresses human recombinant 5-HT2A receptor (Homo sapiens (Human), UniProt P28223). To be noted: read-out: h-5-HT2A Ki.

By UniProt entry, the sequences of proteins in these tests, tags left out.
UniProt P28223, whole entry: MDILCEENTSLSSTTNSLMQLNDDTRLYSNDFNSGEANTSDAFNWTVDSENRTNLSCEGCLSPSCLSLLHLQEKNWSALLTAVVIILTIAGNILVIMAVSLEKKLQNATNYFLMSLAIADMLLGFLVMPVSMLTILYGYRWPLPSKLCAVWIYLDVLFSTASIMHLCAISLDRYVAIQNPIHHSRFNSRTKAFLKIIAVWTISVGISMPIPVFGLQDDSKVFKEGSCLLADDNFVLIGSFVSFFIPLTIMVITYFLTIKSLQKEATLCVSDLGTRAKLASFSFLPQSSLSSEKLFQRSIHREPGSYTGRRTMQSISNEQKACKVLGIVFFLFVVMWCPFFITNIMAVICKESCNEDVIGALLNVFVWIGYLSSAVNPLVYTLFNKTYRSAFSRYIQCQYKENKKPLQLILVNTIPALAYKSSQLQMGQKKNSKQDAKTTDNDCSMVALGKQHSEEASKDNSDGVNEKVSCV

Consider one compound from patent US12527775B2 (priority 2020, dated 2026).

For orientation: pKi means the Ki on a negative log10 scale, so that one unit is a factor of ten.

The structures appear in SMILES notation. pKi: −log10 of the molar value. The structures given here were assigned with low confidence; some may be wrong.

With `CC(C)COc1ccc(CNC(=O)N(Cc2cc[nH]n2)C2CCN(C)CC2)cc1`, the pKi was 7.00 to 8.00.
